# From PubChem BioAssay AID1487 (National Center for Advancing Translational Sciences (NCATS), 2009)
# The other results are listed elsewhere or left out. The main result of the screen is listed elsewhere. These columns were measured beside it and carry no call. Most of these compounds were active or inconclusive in the main read-out, so they are no random draw. Words in brackets tell the shape of the fitted curve; partial curves, single points and poor fits give uncertain potencies.
# Test: qHTS Assay for Modulators of Lamin A Splicing
# Details: HeLa LMNA splicing GFP/RFP minigene ratio, 48 h
# Method in brief: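 S3 HeLa stable clones carrying a lamin A-EGFP splicing minigene plus DsRed2 were seeded at 600 cells/well in Opti-MEM with 2% FBS, pin-dosed and incubated 48 h at 37°C. Acumen cytometry (488 nm) gave the GFP/RFP total-intensity ratio.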
# [1] = measured here: RFP viability control channel
# [2] = measured here: GFP splicing reporter channel
Structure (SMILES),AC50 [1],AC50 [2]
COc1ccc2c(c1)CCc1cc(C(=O)N3CCN(c4ccc(N5CCOCC5)nn4)CC3)sc1-2,"7.08 µM [rising, partial curve]",–
O=C(CSc1ncn[nH]1)Nc1nnc(-c2ccccc2)s1,"12.6 µM [rising, single point]","10 µM [rising, partial curve]"
Cc1ccc(-n2cc(CN3CCC(O)(c4ccccn4)CC3)c(-c3ccc(F)cc3)n2)cc1,"11.2 µM [falling, partial curve, poor fit]","10 µM [falling, partial curve]"
CN(C)c1ccnc(Oc2ccc(C(C)(C)C)cc2)c1C#N,"31.6 µM [rising, single point]",–
CCOC(=O)c1ccccc1NC(=O)N1CCOc2ccc(Cl)cc21,"0.00316 µM [falling, full curve]","0.00631 µM [falling, full curve]"
Cc1ccc(C(=O)Nc2ccc(C)c(S(=O)(=O)N(C)C)c2)s1,"35.5 µM [rising, single point]","35.5 µM [rising, single point]"
O=C(NCCN1CCOCC1)c1sc2ccccc2c1Cl,"0.501 µM [falling, full curve]","0.891 µM [falling, full curve, poor fit]"
Cc1ccc2ccc3cc(C(=O)N4CCN(c5ccccc5)CC4)nc3c2[nH]1,–,"0.01 µM [rising, full curve, poor fit]"
O=c1sc2ccccc2c(N2CCCC2)c1[N+](=O)[O-],"5.62 µM [falling, single point]",–
COc1ccc(-c2ccc3cc(C(=O)O)ccc3c2)cc1C12CC3CC(CC(C3)C1)C2,"3.16 µM [falling, partial curve]","25.1 µM [falling, single point]"
C=CCN1C(=O)CSc2ccc(C(=O)NCCC3=CCCCC3)cc21,"14.1 µM [rising, single point]","11.2 µM [rising, single point]"
Cc1ccc(N2C(=O)NC(NC(=O)C(C)(C)C)(C(F)(F)F)C2=O)cc1C (configuration not stated),"11.2 µM [falling, single point]","22.4 µM [falling, single point]"
COc1ccc(OC)c(S(=O)(=O)Nc2cc(C(=O)O)ccc2N2CC3CC(C2)c2cccc(=O)n2C3)c1 (configuration not stated),"0.0224 µM [falling, full curve, poor fit]","0.0251 µM [falling, full curve, poor fit]"
O=C(NNc1c2ccccc2nc2ccccc12)c1ccc(O)cc1,"12.6 µM [rising, partial curve, poor fit]",–
COc1ccc(NS(=O)(=O)c2cc(NC(=O)C3CC3)ccc2N2CCCCC2)cc1,–,"0.00708 µM [falling, full curve, poor fit]"
O=C(Nc1ccc2c(c1)C(=O)N(CC1CCCO1)C2=O)c1ccc(Cl)c(Cl)c1 (configuration not stated),"6.31 µM [rising, partial curve]",–
CCN(CC)CCNCC(O)(c1ccc(Cl)cc1)c1ccc(Cl)cc1,"8.91 µM [falling, partial curve, poor fit]","11.2 µM [falling, partial curve]"
Cc1cc(C)n(CC(O)CN(c2ccccc2)S(=O)(=O)c2ccc3ccccc3c2)n1 (configuration not stated),"35.5 µM [rising, single point]",–
Cc1ccc(Cc2nc3ccccc3nc2SCC(=O)N2CCCCC2C)cc1 (configuration not stated),"31.6 µM [rising, single point]",–
Cc1ccc(-c2nnn(CC(=O)N(C)C3CCCCC3)n2)o1,"0.0316 µM [falling, full curve, poor fit]","0.0316 µM [falling, full curve, poor fit]"
O=C(c1ccc2c3c(cccc13)C(=O)N(O)C2=O)N1CCCCC1,"7.08 µM [rising, partial curve]",–
CS(=O)(=O)N(Cc1ccc(Cl)cc1)c1ccc(C(=O)Nc2cccnc2)cc1,"31.6 µM [rising, single point]","11.2 µM [rising, single point]"
COc1cccc(N2CCN(S(=O)(=O)c3ccc4c(c3)CCCN4C(C)=O)CC2)c1,–,"35.5 µM [falling, single point]"
COCCNc1nc2c(c(=O)n(C)c(=O)n2C)n1Cc1cccc(C)c1,"20 µM [rising, partial curve, poor fit]",–
CC(C)N1CCC(NC(=O)Nc2ccccc2)CC1,–,"0.141 µM [rising, full curve, poor fit]"
COc1ccc(CCN2CCC(CNC(=O)c3cnn(-c4ccccc4)c3C3CCN(C(=O)OC(C)(C)C)CC3)CC2)cc1,"22.4 µM [rising, partial curve, poor fit]",–
CCOc1ccccc1NS(=O)(=O)c1ccc2c(c1)n(C)c(=O)c(=O)n2C,"0.224 µM [falling, partial curve]","1.58 µM [falling, partial curve, poor fit]"

# Of the compounds above, these contain fluorine.
Structure (SMILES),AC50 [1],AC50 [2]
Cc1ccc(-n2cc(CN3CCC(O)(c4ccccn4)CC3)c(-c3ccc(F)cc3)n2)cc1,"11.2 µM [falling, partial curve, poor fit]","10 µM [falling, partial curve]"
Cc1ccc(N2C(=O)NC(NC(=O)C(C)(C)C)(C(F)(F)F)C2=O)cc1C (configuration not stated),"11.2 µM [falling, single point]","22.4 µM [falling, single point]"

# Next part

Structure (SMILES),AC50 [1],AC50 [2]
CCCOc1ccccc1NC(=O)/C=C/C(N)=O,"35.5 µM [falling, single point]","35.5 µM [falling, single point]"
COc1ccc(C)cc1NC(=O)Cn1cc(S(=O)(=O)Cc2ccccc2Cl)c2ccccc21,"35.5 µM [falling, single point]","15.8 µM [falling, single point]"
O=C(Nc1ccncc1)c1cc2ccccc2o1,"35.5 µM [rising, single point]",–
CCN(CC(=O)NCc1ccc(Cl)cc1)C(=O)/C=C/c1cccs1,"2.51 µM [falling, partial curve]",–
Cc1cc(C(C)(C)C)cc(C)c1Cn1c2[n+](c3ccc(C(F)(F)F)cc31)CCCCC2,"31.6 µM [rising, single point]",–
CC1CCN(C(=O)c2ccc(S(=O)(=O)Cc3ccccc3F)c([N+](=O)[O-])c2)CC1,"15.8 µM [rising, partial curve, poor fit]",–
Cc1ccc(-c2cc(C(=O)N3CCN(c4ccccc4)CC3)c3ccccc3n2)cc1C,"14.1 µM [rising, single point]",–
Cc1ccc(CN2CCN(Cc3cnn(-c4ccc(Cl)cc4)c3)CC2CCO)o1 (configuration not stated),"35.5 µM [falling, partial curve, poor fit]","4.47 µM [falling, partial curve, poor fit]"
Cc1c(C(c2ccccc2O)c2c(C)n(C)n(-c3ccccc3)c2=O)c(=O)n(-c2ccccc2)n1C,"0.00891 µM [falling, full curve, poor fit]",–
CCCC(=O)OCCNc1cc(Sc2nc3ccccc3[nH]2)c2nonc2c1[N+](=O)[O-],"35.5 µM [rising, single point]",–
COc1ccc(C(=O)Nc2ccccc2C(=O)NC(Cc2c[nH]c3ccccc23)C(=O)O)cc1 (configuration not stated),"0.0447 µM [falling, full curve, poor fit]",–
O=C(/C(=C/O)N=Nc1ccccc1)c1ccncc1,"14.1 µM [rising, single point]",–
Cc1nc(C(=O)Nc2cccc(Cl)c2)nn1-c1cc(OC(C)C)c(Cl)cc1Cl,"12.6 µM [rising, partial curve]",–
CN1CCN(S(=O)(=O)c2cnccc2N2CCN(c3cccc(Cl)c3)CC2)CC1,"35.5 µM [rising, single point]","14.1 µM [rising, partial curve]"
COc1ccc(-c2csc(N(CC3CCCO3)C(=O)c3ccc(C)cc3)n2)cc1 (configuration not stated),"28.2 µM [rising, single point]",–
O=C(Nc1ccncc1)c1ccc2c(c1)S(=O)(=O)c1ccccc1C2=O,"17.8 µM [rising, single point]",–
O=C(Cn1cnc2c(cnn2-c2ccc(F)cc2)c1=O)N1CCCc2ccccc21,"11.2 µM [rising, single point]",–
Cc1ccc(N2C(=O)CC(Sc3ccccc3C(=O)O)C2=O)cc1C (configuration not stated),–,"0.398 µM [falling, full curve, poor fit]"
Cc1ccc(-c2csc3n[nH]c(=S)n23)cc1,"12.6 µM [falling, partial curve]","8.91 µM [falling, partial curve]"
COc1ccccc1/C=C/C(=O)Nc1ccc2c(c1)CCC2,"8.91 µM [rising, partial curve, poor fit]",–
COc1cc(/C=N/NC(=O)c2ccc(Cl)c(S(N)(=O)=O)c2)ccc1OCC(N)=O,"0.708 µM [falling, full curve, poor fit]",–
CCCCOC(=O)Oc1ccc2c(=O)c(Oc3cccc(C)c3)coc2c1,"0.0112 µM [falling, full curve, poor fit]",–
Cc1ccc2nc(SCC(=O)Nc3cccc(S(=O)(=O)N(C)C)c3)[nH]c2c1,"12.6 µM [rising, partial curve]","11.2 µM [rising, partial curve, poor fit]"
O=C(c1ccco1)N1CCN(C(c2ccccc2Cl)c2nnnn2Cc2cccs2)CC1 (configuration not stated),–,"20 µM [falling, partial curve, poor fit]"
Clc1ccc(-c2csc(Nc3ccccc3)[n+]2Cc2ccco2)c(Cl)c1,"7.08 µM [rising, partial curve]",–
COc1ccc(C(=O)NCc2ccc3c(c2)OCO3)cc1S(=O)(=O)N(C)Cc1ccccc1,"11.2 µM [rising, partial curve, poor fit]",–
